Source: PubChem BioAssay AID1508588 (Peter MacCallum Cancer Centre, 2020)

- Screen: 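Genome-wide search for knock-downs that heighten vemurafenib action in melanoma cells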 (primary screen)
- Cell system: human WM266.4 melanoma cells (BRAF V600 mutant)
- Reagent: siRNA pool against human genes, 40 nM
- Time to read-out: 96 h from transfection to read-out
- Challenge: vemurafenib 300 nM (about IC25), added 48 h after transfection, for 48 h; comparison arm got DMSO vehicle only
- Measurement: 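Cell gain (DAPI nuclei at end minus before drug, mean of two replicates) and medium lactate by absorbance per cell, both as ratio to non-targeting siRNA, also grouped into fold-change classes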
- Reading the numbers: cell gain with vemurafenib: higher = more cell gain than with non-targeting siRNA; lactate per cell with vemurafenib: higher = more lactate made per cell
- Hit rule: 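Enhancement is called by pairing each knock-down's vehicle-arm and drug-arm fold-change classes for viability or glycolysis; which class combinations qualify is not given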
- Calls: active = enhances vemurafenib effect; inactive = no enhancement seen
In all, the deposit lists about 18,000 reagents; below is a part drawn at random. 790 of them (4.4%) count as active. 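Calls rest on a combination of fold-change classes in drug and vehicle arms, not all shown here.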 Some reagents were tested in more than one well and are listed for each.

target gene | PubChem SID | cell gain with vemurafenib | lactate per cell with vemurafenib | call
HSPG2 | SID135622685 | 0.91 | 0.55 | inactive
RNF186 | SID152150401 | 0.93 | 0.86 | inactive
RBMY1E | SID134329959 | 1.14 | 0.5 | inactive
PARP16 | SID152148310 | 0 | 0.12 | active
ZEB1 | SID152148721 | 0.55 | 1.54 | inactive
MAFF | SID134310149 | 0.78 | 0.9 | inactive
ATG2A | SID152153163 | 0.64 | 0.66 | inactive
SEPHS2 | SID135621438 | 0.55 | 0.54 | inactive
CNPPD1 | SID134320294 | 0.68 | 0.76 | inactive
MRPS7 | SID134317800 | 0.8 | 1.11 | inactive
MYOG | SID152156574 | 0.98 | 1.24 | inactive
BZW2 | SID134324255 | 0.27 | 1.21 | inactive
CDCA5 | SID152152815 | 0.25 | 1.31 | inactive
IER2 | SID134323643 | 0.23 | 1.31 | inactive
HSP90B1 | SID152148402 | 0.06 | 2.24 | inactive
THNSL2 | SID135623975 | 0.55 | 1.15 | inactive
ERLIN2 | SID152154338 | 0.46 | 0.54 | inactive
SKA1 | SID152152929 | 0.8 | 0.59 | inactive
SLC26A11 | SID135621387 | 0.59 | 1.36 | inactive
SHBG | SID134318367 | 0.85 | 0.75 | inactive
LOC155060 | SID135624797 | 0.9 | 0.8 | inactive
TMTC1 | SID135623219 | 0.58 | 0.99 | inactive
CORO7 | SID152152034 | 0.23 | 1.48 | inactive
FBXL8 | SID134321437 | 0.64 | 0.46 | inactive
AKT1 | SID135620599 | 0.82 | 1.7 | inactive
SPANXN2 | SID135625381 | 0.8 | 0.89 | inactive
CALHM5 | SID152149745 | 0.68 | 0.86 | inactive
ARGFX | SID135625388 | 0.51 | 1.53 | inactive
BEND4 | SID135625079 | 0.55 | 1.27 | inactive
BMS1 | SID134324542 | 0.24 | 3.21 | inactive
SPON2 | SID152150538 | 0.96 | 0.99 | inactive
CNBD2 | SID134319326 | 0.29 | 2.15 | inactive
CCIN | SID134316451 | 0.95 | 0.51 | inactive
PHLDB2 | SID135623191 | 0.86 | 0.92 | inactive
PLXNA4 | SID135623624 | 0.13 | 0.73 | inactive
PLXNA4 | SID135623624 | 0.09 | 1.6 | inactive
DUSP29 | SID135624566 | 0.69 | 0.83 | inactive
MAP3K3 | SID56478641 | 0.4 | 0.97 | inactive
CHRD | SID134315842 | 0.55 | 1.38 | inactive
EDNRA | SID135620999 | 0.97 | 0.22 | inactive
OR10A5 | SID134313607 | 0.03 | 0.96 | inactive
NCAN | SID152155175 | 0.7 | 1.03 | inactive
EN2 | SID152150682 | 0.6 | 1.73 | inactive
TRPV3 | SID134310835 | 0.29 | 0.79 | inactive
WDR48 | SID134320452 | 0.26 | 1.08 | inactive
ACAP2 | SID134317063 | 0.83 | 0.65 | inactive
SPTLC3 | SID135621912 | 0.95 | 0.55 | inactive
PYGB | SID152150863 | 1 | 1.31 | inactive
H1-4 | SID134316346 | 0.96 | 0.52 | inactive
SDHAF3 | SID134324983 | 0.34 | 1.52 | inactive
SGK1 | SID152156682 | 1.15 | 0.92 | inactive
FKBP10 | SID134313237 | 0.66 | 0.55 | inactive
ZNF689 | SID134319646 | 0.77 | 0.65 | inactive
METTL13 | SID135622892 | 0.61 | 0.96 | inactive
ZFYVE9 | SID134316250 | 0.71 | 1.55 | inactive
MATCAP2 | SID152155981 | 0.98 | 0.46 | inactive
S1PR5 | SID134310636 | 0.33 | 0.8 | inactive
IGF1R | SID152153009 | 0.66 | 0.94 | inactive
RAB11B | SID152147415 | 0.52 | 0.74 | inactive
VASP | SID152149632 | 0.47 | -0.15 | active
TNFRSF13B | SID134313022 | -0.05 | 1.68 | inactive
RUNDC3A | SID152147051 | 0.49 | 0.62 | inactive
TLX1NB | SID135625707 | 0.35 | 1.09 | inactive
TINAG | SID134313142 | 0.68 | 0.99 | inactive
PLEKHG4B | SID152155774 | 0.64 | 0.71 | inactive
FSCN2 | SID135623917 | 0.48 | 1.61 | inactive
C1orf115 | SID152152393 | 0.57 | 0.72 | inactive
GYG1 | SID134311931 | 0.26 | 1.66 | inactive
YTHDC2 | SID134318395 | -0.08 | 0.18 | active
OR2AT4 | SID135625140 | 0.46 | 0.39 | inactive
C1QTNF4 | SID152152233 | 0.25 | 1.01 | inactive
NLRP13 | SID152153174 | 0.92 | 0.7 | inactive
SLC38A1 | SID135621407 | 0.22 | 1.1 | inactive
ROGDI | SID135622727 | 0.05 | 1.2 | inactive
ISY1 | SID152155648 | 0.42 | 1.15 | inactive
BCDIN3D | SID134322609 | 0.92 | 0.66 | inactive
RNF14 | SID135621267 | 0.73 | 0.96 | inactive
GPR18 | SID135621024 | 0.82 | 1.18 | inactive
ASB8 | SID134318467 | 0.76 | 0.8 | inactive
FGF9 | SID134315984 | 1.05 | 0.52 | inactive
FAM220A | SID135622853 | 0.6 | 1.44 | inactive
LAMB1 | SID134316034 | 0.6 | 0.96 | inactive
COG4 | SID135622651 | 0.81 | 0.65 | inactive
GNAT2 | SID152152939 | 0.91 | 1.31 | inactive

12 entries already listed, sorted by “lactate per cell with vemurafenib”, highest first:
target gene | PubChem SID | cell gain with vemurafenib | lactate per cell with vemurafenib | call
EN2 | SID152150682 | 0.6 | 1.73 | inactive
SDHAF3 | SID134324983 | 0.34 | 1.52 | inactive
CHRD | SID134315842 | 0.55 | 1.38 | inactive
PYGB | SID152150863 | 1 | 1.31 | inactive
WDR48 | SID134320452 | 0.26 | 1.08 | inactive
NCAN | SID152155175 | 0.7 | 1.03 | inactive
OR10A5 | SID134313607 | 0.03 | 0.96 | inactive
TRPV3 | SID134310835 | 0.29 | 0.79 | inactive
ACAP2 | SID134317063 | 0.83 | 0.65 | inactive
SPTLC3 | SID135621912 | 0.95 | 0.55 | inactive
H1-4 | SID134316346 | 0.96 | 0.52 | inactive
EDNRA | SID135620999 | 0.97 | 0.22 | inactive
